According to PubChem BioAssay AID504467 (National Center for Advancing Translational Sciences (NCATS), 2011):
Out of some 330,000 compounds screened, about 7,700 (2.3%) were called active. This list was built around the results that the source calls inconclusive (neither active nor inactive); the mix of calls is not that of the screen. The call rests on the fitted dose curve; in most records, active means well fitted inhibition curve with a large enough effect; inconclusive means small, poorly fitted or top-dose-only effect, or effect the other way; inactive means flat fitted curve, though single readings scatter. Where the call is inconclusive, the potency comes from a doubtful curve fit.
Potency means the concentration at half of the fitted maximal effect.

Test: qHTS screen for small molecules that inhibit ELG1-dependent DNA repair in human embryonic kidney (HEK293T) cells expressing luciferase-tagged ELG1; further: nearly all actives have a fitted effect of over 55% in size
Conditions: HEK293T ELG1-luciferase reporter, luminescence, 16 h, DNA damage induced by 5-fluorouridine; series mostly up to 46.1 µM
How it was run: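 5-Fluorouridine DNA damage + compound/DMSO, 2,000 cells/well, 16 h, 37 °C/5% CO2. ONE-Glo, 30 min RT, luminescence. Readout = decrease in reporter signal.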
With `COc1ccc(C(C(=O)NC2CCCCC2)N(C(=O)c2ccco2)c2ccccc2C(C)=O)cc1OC` (stereo not drawn) the Potency was inconclusive: 0.206 µM [activator, partial curve, poor fit].
In the case of `COc1ccc(-c2coc(CCC(=O)N3CCN(c4cc(C)ccc4C)CC3)n2)cc1`, the Potency is reported as “inactive”.
For `CC(=O)C1=C(O)C(=O)N(c2ccc(Br)cc2)C1c1ccc(Br)cc1` (stereo not drawn), the Potency was “inactive”.
In the case of `CCC(=O)N1c2ccc(S(=O)(=O)CCC(=O)N3CCN(c4ccccc4)CC3)cc2CC1C` (stereo not drawn), the Potency is reported as inconclusive: 29.1 µM [inhibitor, single point].
For `C=CCOC(=O)c1ccc(-n2cnc(C)n2)nc1`, the Potency was inconclusive: 14.6 µM [activator, partial curve, poor fit].
For `COc1ccc2c(c1O)-c1ccccc1CCN(C)C2`, the Potency was inconclusive: 18.3 µM [inhibitor, partial curve, poor fit].
In the case of `C[C@H](NC(=O)c1ccccc1Cl)C(=O)OCCOc1cccc(Cl)c1`, the Potency is reported as inconclusive: 0.73 µM [inhibitor, full curve].
In the case of `CC1CN(S(=O)(=O)c2ccc(C(=O)Nc3nnc(-c4ccco4)o3)cc2)CC(C)O1` (stereo not drawn), the Potency is reported as active: 18.3 µM.
With `Cc1cc(C(=O)CSc2nncn2C)c(C)n1-c1ccccc1` the Potency was inconclusive: 4.61 µM [activator, partial curve].
For `CCCCNC(=O)c1oc2ccc(S(=O)(=O)N3CCCC3)cc2c1C`, the Potency was inconclusive: 25.9 µM [inhibitor, partial curve].
With `Cc1ccccc1OCC(=O)OCC(=O)Nc1cc(S(C)(=O)=O)ccc1Cl` the Potency was “inactive”.
With `CCOc1ccc(NC(=O)CCC(=O)NNC(=O)c2cccc([N+](=O)[O-])c2)cc1` the Potency was “inactive”.
With `COc1ccc(-c2cn3ccc(C)cc3n2)cc1` the Potency was inconclusive: 0.291 µM [activator, partial curve].
With `Cc1cc(N/C=C2\CCCCC2=O)no1` the Potency was inconclusive: 14.6 µM [activator, partial curve, poor fit].
For `CCOc1ccc(C(C(=O)NCC2CCCO2)N(C(=O)c2snc(C(N)=O)c2N)c2ccccc2F)cc1` (stereo not drawn), the Potency was inconclusive: 16.4 µM [inhibitor, partial curve].
For `CC(=O)Nc1ccc(C(=O)OCc2ccc(Br)cc2)cc1`, the Potency was “inactive”.
For `CNc1ccc(Br)cc(C(=O)/C=C/c2cccc(OC)c2OC)c1=O`, the Potency was inconclusive: 29.1 µM [inhibitor, single point].
In the case of `COc1ccc(NC(=O)c2nc[nH]c2C(=O)N[C@H](C)c2ccccc2)cc1`, the Potency is reported as inconclusive: 20.6 µM [inhibitor, partial curve, poor fit].
With `CC(C)(C)[C@H]1C=C(C(=O)N2CCOCC2)O[C@@H](OCc2ccc(CO)cc2)C1` the Potency was “inactive”.
With `COc1cccc(/C=N/NC(=O)c2ccc3nc[nH]c3c2)c1` the Potency was inconclusive: 18.3 µM [activator, partial curve, poor fit].
In the case of `COc1cccc(/C=N/Nc2nc(-c3cccnc3)nc3ccccc23)c1`, the Potency is reported as inconclusive: 11.6 µM [inhibitor, partial curve].
In the case of `CC(C)(C)n1nnnc1C(c1cccc(C#N)c1)N1CCCCCC1` (stereo not drawn), the Potency is reported as “inactive”.
For `CCN(CC)c1ccc(/C=N/NC(=S)NCc2ccco2)cc1`, the Potency was inconclusive: 29.1 µM [inhibitor, single point].
For `COc1ccc(NC2CCCN(C(=O)CCc3ccccc3F)C2)cc1` (stereo not drawn), the Potency was “inactive”.
For `COc1ccc(NC(=O)c2ccco2)cc1NC(=O)c1c(OC)cccc1OC`, the Potency was inconclusive: 5.8 µM [inhibitor, partial curve, poor fit].
With `COc1cccc(-n2c(SCC(=O)Nc3nc4ccccc4s3)nc3ccccc3c2=O)c1` the Potency was inconclusive: 29.1 µM [inhibitor, single point].
In the case of `Cc1ccc(NC(=O)c2nc[nH]c2C(=O)Nc2ccc(C)cc2)cc1`, the Potency is reported as “inactive”.
In the case of `CC(=O)Nc1ccccc1N(CC(O)Cn1c2ccccc2c2ccccc21)S(=O)(=O)c1ccc(C)cc1` (stereo not drawn), the Potency is reported as inconclusive: 20.6 µM [inhibitor, single point].
For `O=C(OCC(=O)N1CCOCC1)c1ccc(Cl)c(S(=O)(=O)N2CCc3ccccc32)c1`, the Potency was inconclusive: 20.6 µM [inhibitor, single point].
In the case of `C=CCN(c1ccccc1)S(=O)(=O)c1cccc(C(=O)NCc2ccncc2)c1`, the Potency is reported as active: 8.2 µM.
For `O=C(O)c1ccc(Cl)cc1Nc1nc2cc(Cl)ccc2o1`, the Potency was inconclusive: 7.3 µM [inhibitor, partial curve, poor fit].
In the case of `CCc1nnc(NS(=O)(=O)c2ccc(NC(=O)Nc3ccc(OC)cc3)cc2)s1`, the Potency is reported as “inactive”.
In the case of `COc1ccc(/C=N/N2C(=O)CN(C(=O)c3ccccc3)C2c2ccc(OC)cc2)cc1` (stereo not drawn), the Potency is reported as inconclusive: 20.6 µM [inhibitor, single point].
In the case of `Cc1ccc2oc(=O)c3cnn(CC(=O)N(Cc4ccco4)C4CCCCC4)c3c2c1`, the Potency is reported as inconclusive: 29.1 µM [inhibitor, single point].
With `CCN(CC)N=Nc1[nH]nc2nc(C)cc(C)c12` the Potency was inconclusive: 20.6 µM [activator, partial curve].
For `Cc1ccc(-c2csc(NC(=S)NC(=O)/C=C/c3ccco3)n2)cc1`, the Potency was inconclusive: 35.5 µM [activator, single point].
In the case of `CC(=O)c1ccc(N2CCN(C(=O)Nc3ccc(C(C)C)cc3)CC2)cc1`, the Potency is reported as inconclusive: 6.51 µM [inhibitor, partial curve].
In the case of `CC(NC1CCCCC1)C(=O)NN=C(c1ccccc1)c1ccccc1` (stereo not drawn), the Potency is reported as “inactive”.
For `O=C(c1ccc(Cl)c(Cl)c1)N1CCC(=O)N(C(COCc2ccc(Cl)cc2)Cc2ccccc2)CC1` (stereo not drawn), the Potency was inconclusive: 32.6 µM [inhibitor, single point].
For `Cc1ccc(C(=O)N(C)Cc2ccc(N3CCOCC3)cc2)cc1S(=O)(=O)NCc1ccccc1`, the Potency was active: 20.6 µM.
In the case of `Cn1c2ccccc2c2cnn(CC(=O)NCCCN3CCN(c4ccccc4F)CC3)c(=O)c21`, the Potency is reported as “inactive”.
In the case of `Cc1cc(N)n2ncc(-c3ccccc3)c2n1`, the Potency is reported as inconclusive: 6.51 µM [activator, partial curve].
With `O=C(COc1ccc2ccccc2c1)N1CCCC1` the Potency was inconclusive: 20.6 µM [activator, partial curve].
With `COc1ccccc1CN1CC(C(=O)NCc2cc(F)ccc2C)CCC1=O` (stereo not drawn) the Potency was inconclusive: 25.9 µM [activator, single point].
With `Cc1ccc(C)c(OCc2nc3ccccc3[nH]2)c1` the Potency was inconclusive: 18.3 µM [activator, partial curve].
With `Cc1[nH]n(C(N)=S)c(=O)c1N=Nc1cccc(Cl)c1` the Potency was inconclusive: 20.6 µM [activator, partial curve].
With `COc1ccccc1N1CCN(C(=O)c2cc(=O)c3cc(C)ccc3o2)CC1` the Potency was inconclusive: 20.6 µM [inhibitor, single point].
For `COCCN(Cc1ccccc1)C(=S)Nc1ccc(Cl)cc1`, the Potency was inconclusive: 13 µM [inhibitor, partial curve, poor fit].
In the case of `O=C(Nc1ncccc1O)c1ccc(S(=O)(=O)N2CCCCCC2)cc1`, the Potency is reported as inconclusive: 18.3 µM [activator, single point].
With `Cc1c(Cc2ccccc2)c(=O)oc2c(C)c(OCC(=O)NCc3ccccn3)ccc12` the Potency was inconclusive: 16.4 µM [inhibitor, partial curve].
In the case of `O=C(COc1ccc2c3c(c(=O)oc2c1)CCCC3)NC(Cc1ccc(Cl)cc1)C(=O)O` (stereo not drawn), the Potency is reported as inconclusive: 0.146 µM [activator, single point].
For `C=C(C)C(=O)Nc1cccc(C2=NOC3(C2)C[C@@H](C(N)=O)N(C(=O)/C=C/C=C/C)C3)c1` (stereo partly drawn), the Potency was “inactive”.
With `COc1cccc(/C=C/C(=O)OCC(=O)NCCNC(=O)COC(=O)/C=C/c2cccc(OC)c2)c1` the Potency was “inactive”.
In the case of `O=C(c1ccc(F)cc1F)N1CCCc2ccccc21`, the Potency is reported as “inactive”.
In the case of `Cc1ccc(C(=O)Cn2nnc3ccccc32)cc1C`, the Potency is reported as inconclusive: 16.4 µM [activator, partial curve].
For `Cn1c(C(=O)N[C@@H](Cc2ccccc2)C(=O)NCCC(=O)O)cc2cc(Cl)ccc21`, the Potency was “inactive”.
In the case of `CSc1nc2sc3c(c2c(=O)[nH]1)CCCC3`, the Potency is reported as inconclusive: 25.9 µM [activator, single point].
With `O=C(NNc1cccc(Cl)n1)c1ccc(Cl)cc1Cl` the Potency was inconclusive: 14.6 µM [activator, partial curve].
For `N#C/C(=C(/O)CN1CCCCC1)c1nc(-c2ccc(Cl)cc2)cs1`, the Potency was inconclusive: 8.2 µM [activator, partial curve].
In the case of `CC1(CCC(=O)N2CCCC(Nc3ccc(F)cc3)C2)CC1` (stereo not drawn), the Potency is reported as inconclusive: 0.116 µM [inhibitor, full curve].
For `COc1cc(/C=N\NC(=O)c2cccc(Cl)c2)ccc1Oc1ccc([N+](=O)[O-])cn1`, the Potency was inconclusive: 20.6 µM [inhibitor, single point].
In the case of `C#CCOc1ccccc1/C=C1/C(=O)ON=C1C`, the Potency is reported as “inactive”.
For `c1cn2c(NC3CCCC3)c(-c3ccc(N4CCOCC4)cc3)nc2cn1`, the Potency was inconclusive: 3.26 µM [activator, full curve].
With `CCCn1ncc(CN2CCC(CO)(CC3CCCCO3)CC2)c1C` (stereo not drawn) the Potency was “inactive”.
For `Cc1ccc(NC(=O)CN(C)C(=O)Cn2ncc(Cl)c(Cl)c2=O)cc1`, the Potency was inconclusive: 29.1 µM [inhibitor, single point].
With `Cc1cc(C)c(NC(=O)CN(C)C(=O)c2ccc(OCc3ccccc3)cc2)c(C)c1` the Potency was inconclusive: 18.3 µM [activator, single point].
In the case of `CCN(CC)Cc1c(NC(=O)c2ccccc2)sc(C)c1C`, the Potency is reported as inconclusive: 9.2 µM [activator, partial curve].
In the case of `COc1ccc(/C=N/NS(=O)(=O)c2ccc(C)cc2)cc1OC(=O)c1ccc(C)cc1`, the Potency is reported as “inactive”.
